Assay results from PubChem BioAssay AID1259354 (Paczesny and Yang Labs, IUPUI and University of Michigan, 2018).
The whole screen tested about 78,000 compounds, of which about 1,800 (2.3%) were called active. The inconclusive results got no clear call from the source; some entries with a clear call stand among them for comparison. No stated cut-off is given here; in the data, active means inhibition above about 30%; inconclusive means mostly about 10% to 28%; inactive means weaker than that.

The chains behind the UniProt entries cited, without tags or fusion partners. Where a name states a change or a piece, a line headed by the entry shows the natural chain unless it says otherwise.
UniProt Q01638: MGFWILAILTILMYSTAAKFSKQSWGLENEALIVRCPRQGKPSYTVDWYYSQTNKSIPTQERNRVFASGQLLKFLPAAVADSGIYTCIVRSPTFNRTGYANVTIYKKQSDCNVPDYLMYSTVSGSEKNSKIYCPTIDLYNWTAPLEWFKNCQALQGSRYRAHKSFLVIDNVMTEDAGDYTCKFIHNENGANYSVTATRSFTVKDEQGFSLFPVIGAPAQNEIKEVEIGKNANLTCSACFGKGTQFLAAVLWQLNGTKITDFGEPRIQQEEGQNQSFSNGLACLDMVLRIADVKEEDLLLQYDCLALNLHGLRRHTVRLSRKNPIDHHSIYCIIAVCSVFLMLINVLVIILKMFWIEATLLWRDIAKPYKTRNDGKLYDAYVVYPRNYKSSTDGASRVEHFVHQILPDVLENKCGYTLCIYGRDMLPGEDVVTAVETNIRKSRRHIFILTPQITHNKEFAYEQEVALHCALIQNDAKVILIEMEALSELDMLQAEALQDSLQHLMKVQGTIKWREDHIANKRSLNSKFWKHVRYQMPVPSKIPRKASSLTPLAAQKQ

Target: Interleukin-1 receptor-like 1 (Homo sapiens) (UniProt Q01638)
Assay: inhibitors of human ST2 (IL1RL1) binding to IL-33, primary screen, biochemical, AlphaLISA (AID 1259354)
Conditions: AlphaLISA ST2-Fc/biotin-IL-33 interaction, 1 h; at 17 µM, active compounds read high

Question: `CCOc1ccc(/C=C/[N+](=O)[O-])cc1` was tested. Which inhibition did it give?
Answer: inconclusive: 24%

Question: With `COc1ccc(-c2cn(C[C@H]3CC4CCN3C[C@@H]4C(=O)NCc3ccc(F)cc3)nn2)cc1` (some centres undefined) as the molecule, how does the inhibition read?
Answer: inconclusive: 14%

Question: For `CCN(CCCl)Cc1ccccc1Br`, which inhibition is on record?
Answer: inactive

Question: With `CCN(CC)C(=O)c1ccc(N2C(=O)C3CC=C(Cl)CC3C2=O)cc1` (centres undefined) as the molecule, how does the inhibition read?
Answer: inactive

Question: For `O=c1c2ccccc2nc(/C=C\c2ccccc2F)n1-c1ccc(O)cc1`, which inhibition is on record?
Answer: inconclusive: 17%

Question: With `COc1ccccc1CNC(=O)[C@H]1CN2CC[C@H]1C[C@@H]2Cn1cc(CCO)nn1` as the molecule, how does the inhibition read?
Answer: inactive

Question: For `C#CCN(C)C[C@H]1CN2CC[C@H]1C[C@@H]2CNC(=S)NCCOC`, which inhibition is on record?
Answer: inconclusive: 13%

Question: `COc1ccccc1CN1CCN(c2cccc(C)c2C)CC1` was tested. Which inhibition did it give?
Answer: inconclusive: 18%

Question: `COc1ccccc1CC(C)N(C)C(=O)CN1CCCN(C)CC1` (centres undefined) was tested. Which inhibition did it give?
Answer: inconclusive: 15%

Question: For `Cc1cccc(CN2CCN(CCO)CC2)c1`, which inhibition is on record?
Answer: inconclusive: 17%

Question: Which inhibition does the source give for `Cc1o[nH]c(=O)c1CC(N)C(=O)O` (centres undefined) here?
Answer: inactive

Question: How did the inhibition turn out when `CCCS(=O)(=O)NC[C@H]1C[C@@H]2CCN1C[C@@H]2c1cc(-c2ccccc2OC)nn1C` was run?
Answer: inactive

Question: `Cn1nc(C2CCCC2)cc1[C@H]1CN2CC[C@H]1C[C@@H]2CO` was tested. Which inhibition did it give?
Answer: inactive

Question: With `CCC(=O)c1ccc(OCC(=O)N2C[C@@H]3C[C@H](C2)c2cccc(=O)n2C3)cc1` as the molecule, how does the inhibition read?
Answer: inactive

Question: How did the inhibition turn out when `CS[C@]1(CO)C(=O)N2[C@H]3C(=CC=C[C@@H]3O)C[C@@]2(SC)C(=O)N1C` was run?
Answer: inconclusive: 12%

Question: How did the inhibition turn out when `COc1cc(Cl)cc(C2NCCc3[nH]cnc32)c1OC` (centres undefined) was run?
Answer: inactive

Question: Which inhibition does the source give for `NCCc1nc2ccccc2[nH]1` here?
Answer: inconclusive: 18%

Question: Which inhibition does the source give for `COc1ccc(-c2cc([C@H]3CN4CC[C@H]3C[C@@H]4CN)n(C)n2)cc1` here?
Answer: inactive

Question: `COCCNC(=O)[C@H]1CN2CCC1C[C@@H]2Cn1cc(COc2ccccc2)nn1` (some centres undefined) was tested. Which inhibition did it give?
Answer: inconclusive: 12%

Question: With `CCOC(=O)Cc1csc(NC(=O)c2cccn(Cc3c(F)cccc3Cl)c2=O)n1` as the molecule, how does the inhibition read?
Answer: inactive

Question: With `CN(CCc1ccccc1)Cc1cccc([N+](=O)[O-])c1` as the molecule, how does the inhibition read?
Answer: inconclusive: 17%

Question: How did the inhibition turn out when `Cc1ccc2nc(CCNC(C)C)[nH]c2c1` was run?
Answer: inconclusive: 15%

Question: `COc1ccc(N2CCN(Cc3cccc(F)c3)CC2)cc1` was tested. Which inhibition did it give?
Answer: inconclusive: 19%

Question: Which inhibition does the source give for `CC1CCN(C[C@H]2CN3CC[C@H]2C[C@@H]3CNC(=S)NCc2ccco2)CC1` here?
Answer: inactive

Question: With `Cc1ccc(Cc2c(C)nc3nc(SCC(=O)N4CCC5(CC4)OCCO5)nn3c2C)cc1` as the molecule, how does the inhibition read?
Answer: inconclusive: 10%

Question: For `O=[N+]([O-])c1ccc(NCCO)c2ncccc12`, which inhibition is on record?
Answer: inconclusive: 10%

Question: With `Oc1ccc(CN2CCN(c3ccccc3)CC2)cc1` as the molecule, how does the inhibition read?
Answer: inconclusive: 11%

Question: How did the inhibition turn out when `CSc1ccc(-c2ccc3n(c2=O)C[C@H]2C[C@@H]3CN(C(=O)c3cnccn3)C2)cc1` was run?
Answer: inconclusive: 21%

Question: For `CSCC(=O)N1C[C@@H]2C[C@H](C1)c1ccc(-c3ccc(SC)cc3)c(=O)n1C2`, which inhibition is on record?
Answer: inactive

Question: For `CN1CCN(C[C@H]2CN3CC[C@H]2C[C@@H]3CNC(=O)c2ccc3c(c2)OCO3)CC1`, which inhibition is on record?
Answer: inconclusive: 11%

Question: For `CCN(CC)C(=O)Cn1cc(/C=C2\C(=O)NC(=O)N(c3ccccc3F)C2=O)c2ccccc21`, which inhibition is on record?
Answer: inactive

Question: For `c1ccc(C2CC2)c(OCC2=NCCN2)c1`, which inhibition is on record?
Answer: inconclusive: 13%

Question: How did the inhibition turn out when `CC[C@H]1CN2CC[C@H]1C[C@@H]2CNC(=S)NCc1ccccc1` was run?
Answer: inconclusive: 14%

Question: `O=C(c1cncnc1)N1C[C@@H]2C[C@H](C1)c1ccc(-c3cccnc3)c(=O)n1C2` was tested. Which inhibition did it give?
Answer: inactive

Question: With `O=C1C2CCCN2C(c2ccccc2Cl)N1c1ccccn1` (centres undefined) as the molecule, how does the inhibition read?
Answer: inconclusive: 10%

Question: How did the inhibition turn out when `COc1ccc2c(c1)c(C(=O)NC(C)CCn1cccn1)c(C)n2C` (centres undefined) was run?
Answer: inconclusive: 20%

Question: For `O=c1c2ccccc2nc(/C=C\c2ccc(Cl)cc2)n1-c1ccccc1`, which inhibition is on record?
Answer: inconclusive: 13%

Question: For `COc1ccc(NC(=O)N2C[C@@H]3C[C@H](C2)c2ccc(NC(=O)CN(C)C)c(=O)n2C3)cc1`, which inhibition is on record?
Answer: inactive

Question: For `c1ccc(-c2ccc(CN3CCOCC3)cc2)cc1`, which inhibition is on record?
Answer: inconclusive: 13%

Question: How did the inhibition turn out when `CCCCCOc1ccc2c(c1)oc(=O)c1ccccc12` was run?
Answer: inactive

Question: `O=C(Nc1ccc(=O)n2c1[C@@H]1C[C@@H](CN(C(=O)c3ccc(F)cc3)C1)C2)c1ccccc1` was tested. Which inhibition did it give?
Answer: inconclusive: 19%

Question: How did the inhibition turn out when `Cc1nc(N2CCCN3CCC[C@H]3C2)c2cnn(C)c2n1` was run?
Answer: inconclusive: 12%

Question: `O=C(Nc1nccs1)c1cccn(Cc2cccc(Cl)c2)c1=O` was tested. Which inhibition did it give?
Answer: inconclusive: 13%

Question: Which inhibition does the source give for `CN(Cc1ccccc1)C[C@H]1CN2CC[C@H]1C[C@@H]2CNC(=S)Nc1ccc(-n2cccn2)cc1` here?
Answer: inconclusive: 15%

Question: `CN1CCC(N(C)Cc2cccnc2)CC1` was tested. Which inhibition did it give?
Answer: inconclusive: 10%

Question: With `O=C(NC[C@H]1C[C@@H]2CCN1C[C@@H]2CN1CCN(c2ccccc2)CC1)c1ccccc1` as the molecule, how does the inhibition read?
Answer: inactive

Question: For `O=C(O)CCCC(=O)N1C[C@@H]2C[C@H](C1)c1ccc(-c3ccc(Cl)cc3)c(=O)n1C2`, which inhibition is on record?
Answer: inconclusive: 14%

Question: `Cc1nc(-c2cccs2)cc([C@H]2CN3CC[C@H]2C[C@@H]3COC(=O)Nc2ccc(C(C)C)cc2)n1` was tested. Which inhibition did it give?
Answer: inactive

Question: `O=C(NC1CCCCC1)[C@H]1CN2CC[C@H]1C[C@@H]2Cn1cc(C2(O)CCCCC2)nn1` was tested. Which inhibition did it give?
Answer: inconclusive: 13%

Question: Which inhibition does the source give for `CSc1ncc(C(=O)N[C@H]2C[C@H]3CN(C)CCN3C2)c(=O)[nH]1` here?
Answer: inconclusive: 11%

Question: For `O=C(Cc1ccc(Cl)c(Cl)c1)N1CCCCC1CN1CCCC1` (centres undefined), which inhibition is on record?
Answer: inconclusive: 14%

Question: `OCC1CCCN1C1CC2CCC1C2` (centres undefined) was tested. Which inhibition did it give?
Answer: inactive

Question: How did the inhibition turn out when `COc1cccc(CN2CCN(c3cccc(Cl)c3)CC2)c1OC` was run?
Answer: inconclusive: 25%

Question: With `C#CCOC(=O)C1=CCCN(C)C1` as the molecule, how does the inhibition read?
Answer: inconclusive: 13%

Question: For `CCN1C(=O)NC(=O)/C(=C\c2cn(CC(=O)NCCOC)c3ccccc23)C1=O`, which inhibition is on record?
Answer: inactive

Question: How did the inhibition turn out when `CC(=O)c1ccc(NC(=O)OC[C@H]2C[C@@H]3CCN2C[C@@H]3c2cc(C3CCCC3)nn2C)cc1` was run?
Answer: inactive

Question: How did the inhibition turn out when `CN(C)Cc1cn(C[C@H]2CC3CCN2C[C@@H]3C(=O)NC2CCCCC2)nn1` (some centres undefined) was run?
Answer: inconclusive: 12%

Question: With `O=c1ccc(-c2ccc(OC(F)(F)F)cc2)c2n1C[C@H]1C[C@@H]2CN(Cc2cccs2)C1` as the molecule, how does the inhibition read?
Answer: inconclusive: 17%

Question: `N#CC1=C(N)Oc2c(c(=O)oc3ccccc23)C1c1ccc(F)cc1` (centres undefined) was tested. Which inhibition did it give?
Answer: inactive
